Assay results reported in patent US20070054328A1.
Results are given in words; binding and its absence hold for the method and conditions named. In cells and extracts the contact can be indirect. Some results given as binding are weak or reduced against the parent protein; the word gives no strength. For part of these data: Sequences can lack the tags named with a protein. Blank lines part the entries; values can stand above or below the substance they belong to.

Chains of the proteins cited; added tags and fusions are not shown. Lines headed by an entry give the natural chain unless they say otherwise; changes in a name come on top.
UniProt Q9HB21: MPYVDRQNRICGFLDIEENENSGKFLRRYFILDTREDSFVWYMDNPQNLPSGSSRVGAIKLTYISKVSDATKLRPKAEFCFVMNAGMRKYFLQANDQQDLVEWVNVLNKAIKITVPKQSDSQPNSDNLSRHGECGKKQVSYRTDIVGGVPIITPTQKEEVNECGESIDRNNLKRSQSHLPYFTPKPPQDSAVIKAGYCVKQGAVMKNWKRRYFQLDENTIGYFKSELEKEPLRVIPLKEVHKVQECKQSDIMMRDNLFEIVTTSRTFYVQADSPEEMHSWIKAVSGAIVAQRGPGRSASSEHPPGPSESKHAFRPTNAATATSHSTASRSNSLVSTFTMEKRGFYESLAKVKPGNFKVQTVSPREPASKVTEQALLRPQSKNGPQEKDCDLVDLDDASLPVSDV
UniProt Q12923: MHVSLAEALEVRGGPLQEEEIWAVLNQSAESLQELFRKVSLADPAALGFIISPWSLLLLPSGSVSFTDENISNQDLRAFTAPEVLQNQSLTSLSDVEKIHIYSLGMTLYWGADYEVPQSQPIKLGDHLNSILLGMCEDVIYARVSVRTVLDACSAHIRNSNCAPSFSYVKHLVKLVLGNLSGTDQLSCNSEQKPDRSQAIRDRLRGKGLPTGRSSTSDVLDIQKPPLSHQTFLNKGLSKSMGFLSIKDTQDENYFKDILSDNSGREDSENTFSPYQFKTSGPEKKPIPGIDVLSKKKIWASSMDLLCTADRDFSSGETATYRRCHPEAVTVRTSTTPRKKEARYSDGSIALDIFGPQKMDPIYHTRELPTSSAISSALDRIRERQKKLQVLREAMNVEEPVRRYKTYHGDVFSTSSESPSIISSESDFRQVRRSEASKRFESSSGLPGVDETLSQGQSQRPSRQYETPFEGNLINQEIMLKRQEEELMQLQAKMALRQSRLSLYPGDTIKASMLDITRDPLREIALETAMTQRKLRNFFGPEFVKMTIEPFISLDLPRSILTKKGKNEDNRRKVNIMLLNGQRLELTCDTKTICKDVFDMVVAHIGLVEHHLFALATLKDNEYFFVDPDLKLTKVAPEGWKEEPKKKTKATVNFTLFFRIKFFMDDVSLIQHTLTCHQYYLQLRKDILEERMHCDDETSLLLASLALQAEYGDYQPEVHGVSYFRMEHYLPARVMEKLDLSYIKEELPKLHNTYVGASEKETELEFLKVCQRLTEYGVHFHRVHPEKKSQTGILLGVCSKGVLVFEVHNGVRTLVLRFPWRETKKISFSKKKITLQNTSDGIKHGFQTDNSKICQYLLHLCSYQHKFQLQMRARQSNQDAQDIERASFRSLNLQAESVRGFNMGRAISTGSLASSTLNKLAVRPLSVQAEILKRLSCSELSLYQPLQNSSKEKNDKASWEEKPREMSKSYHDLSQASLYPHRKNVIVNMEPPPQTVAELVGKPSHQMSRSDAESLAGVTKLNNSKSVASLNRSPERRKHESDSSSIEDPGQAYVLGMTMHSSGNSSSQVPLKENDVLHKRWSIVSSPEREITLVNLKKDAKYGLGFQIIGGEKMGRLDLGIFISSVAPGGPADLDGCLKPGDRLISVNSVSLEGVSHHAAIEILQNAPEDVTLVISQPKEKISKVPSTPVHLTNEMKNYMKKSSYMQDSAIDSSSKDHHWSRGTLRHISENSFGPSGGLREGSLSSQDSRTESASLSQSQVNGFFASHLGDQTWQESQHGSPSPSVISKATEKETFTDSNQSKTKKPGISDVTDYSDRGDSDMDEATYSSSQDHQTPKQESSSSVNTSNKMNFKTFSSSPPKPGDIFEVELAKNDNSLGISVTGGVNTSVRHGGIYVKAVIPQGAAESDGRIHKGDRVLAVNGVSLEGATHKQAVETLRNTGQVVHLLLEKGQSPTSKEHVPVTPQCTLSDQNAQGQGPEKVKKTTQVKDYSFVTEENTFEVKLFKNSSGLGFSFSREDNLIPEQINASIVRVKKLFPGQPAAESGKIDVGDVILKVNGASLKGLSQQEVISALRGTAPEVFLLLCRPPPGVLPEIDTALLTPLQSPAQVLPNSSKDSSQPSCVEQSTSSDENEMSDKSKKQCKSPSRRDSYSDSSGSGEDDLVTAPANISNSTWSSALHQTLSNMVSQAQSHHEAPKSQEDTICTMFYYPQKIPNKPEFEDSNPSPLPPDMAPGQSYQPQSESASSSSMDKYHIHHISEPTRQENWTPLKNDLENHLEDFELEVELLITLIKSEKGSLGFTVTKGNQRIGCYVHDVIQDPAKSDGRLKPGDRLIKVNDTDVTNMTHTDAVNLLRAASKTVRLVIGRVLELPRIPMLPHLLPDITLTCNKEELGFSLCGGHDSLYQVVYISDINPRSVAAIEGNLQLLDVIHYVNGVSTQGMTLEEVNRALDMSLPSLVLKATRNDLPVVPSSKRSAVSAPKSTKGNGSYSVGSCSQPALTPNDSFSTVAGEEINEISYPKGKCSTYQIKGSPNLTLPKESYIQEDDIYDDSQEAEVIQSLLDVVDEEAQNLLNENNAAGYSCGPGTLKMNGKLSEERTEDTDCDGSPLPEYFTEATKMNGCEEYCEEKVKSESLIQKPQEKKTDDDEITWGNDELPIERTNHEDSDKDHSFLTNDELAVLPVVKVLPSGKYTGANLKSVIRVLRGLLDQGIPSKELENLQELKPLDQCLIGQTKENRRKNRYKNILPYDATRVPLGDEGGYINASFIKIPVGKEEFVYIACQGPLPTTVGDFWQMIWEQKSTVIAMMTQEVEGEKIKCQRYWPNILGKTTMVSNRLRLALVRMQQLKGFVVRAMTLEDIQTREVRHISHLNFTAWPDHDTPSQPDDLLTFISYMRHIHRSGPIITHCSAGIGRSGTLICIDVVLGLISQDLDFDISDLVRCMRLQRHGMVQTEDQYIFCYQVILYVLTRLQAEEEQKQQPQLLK

Legend:
FLAG-TAPP2 [1] = molecular target: T1, FLAG-TAPP2 (UniProt Q9HB19); test: co-expression in 293 cells; glutathione-Sepharose pull-down, anti-FLAG immunoblot
T1 sequence (looked up): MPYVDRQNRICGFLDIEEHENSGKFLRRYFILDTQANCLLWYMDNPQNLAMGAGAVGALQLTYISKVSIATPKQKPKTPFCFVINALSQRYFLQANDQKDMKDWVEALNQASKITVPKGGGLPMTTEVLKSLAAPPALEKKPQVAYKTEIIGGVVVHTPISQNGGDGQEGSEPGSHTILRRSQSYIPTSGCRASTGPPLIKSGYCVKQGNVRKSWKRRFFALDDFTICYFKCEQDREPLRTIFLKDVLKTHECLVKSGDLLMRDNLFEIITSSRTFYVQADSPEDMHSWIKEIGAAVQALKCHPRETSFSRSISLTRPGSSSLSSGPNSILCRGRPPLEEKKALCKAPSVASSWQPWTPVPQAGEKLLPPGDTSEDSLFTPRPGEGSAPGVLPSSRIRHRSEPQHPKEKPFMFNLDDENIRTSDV

FLAG-TAPP1 [2] = molecular target: FLAG-TAPP1 (UniProt Q9HB21); test: as above
FLAG-TAPP2 [3] = molecular target: T1, FLAG-TAPP2; test: co-expression binding assay in 293 cells; glutathione-Sepharose pull-down, anti-FLAG immunoblot
FLAG-TAPP1 [4] = molecular target: FLAG-TAPP1 (UniProt Q9HB21); test: as above
FLAG-TAPP2 [5] = molecular target: T1, FLAG-TAPP2; test: co-expression in 293 cells; glutathione-Sepharose pull-down
FLAG-TAPP1 [6] = molecular target: FLAG-TAPP1 (UniProt Q9HB21); test: as above
[7] = molecular target: endogenous PTPL1 (Protein Tyrosine Phosphatase Like-Protein-1) of 293 cells (human) (UniProt Q12923); test: GST pull-down from 293 cells; immunoblot with two anti-PTPL1 antibodies
[8] = molecular target: endogenous PTPL1 (Protein Tyrosine Phosphatase Like-Protein-1) of 293 cells (human) (UniProt Q12923); test: GST pull-down from 293 cells
[9] = molecular target: endogenous PTPL1 (Protein Tyrosine Phosphatase Like-Protein-1) of 293 cells (human) (UniProt Q12923); test: GST pull-down from 293 cells; pNPP phosphatase assay and anti-PTPL1 immunoblot
[10] = molecular target: endogenous PTPL1 (Protein Tyrosine Phosphatase Like-Protein-1) of 293 cells (human) (UniProt Q12923); test: reciprocal co-immunoprecipitation from 293 cell lysate
[11] = molecular target: endogenous PTPL1 (Protein Tyrosine Phosphatase Like-Protein-1) of 293 cells (human) (UniProt Q12923); test: reciprocal co-immunoprecipitation from 293 cell lysate; immunoblot
[12] = molecular target: endogenous PTPL1 (Protein Tyrosine Phosphatase Like-Protein-1) of 293 cells (human) (UniProt Q12923); test: co-immunoprecipitation from 293 cell lysate

binding (FLAG-TAPP2 [1]): binds
binding (FLAG-TAPP1 [2]): binds
binding (FLAG-TAPP2 [3]): binds
binding (FLAG-TAPP1 [4]): binds
binding (FLAG-TAPP2 [5]): binds
binding (FLAG-TAPP1 [6]): binds
Substance: GST fusion of the HA tagged 1st PDZ domain of PTPL1 (residues 1099 to 1199) (from UniProt P08515 1-218; Q12923 1099-1199)

binding [7]: binds
binding [8]: binds
binding [9]: binds
Substance: GST-TAPP1 (wild type, expressed in 293 cells) (from UniProt P08515 1-218; Q9HB21 1-404)

binding [7]: binds
binding [8]: binds
binding [9]: binds
Substance: GST-TAPP2 (wild type, expressed in 293 cells) (from UniProt P08515 1-218; Q9HB19 1-425)

binding [10]: binds
binding [11]: binds
binding [12]: binds
Substance: endogenous TAPP1 of 293 cells (from UniProt Q9HB21 1-404)
